The target in the experiment is Fyn (human (endogenous in NK-92)) (UniProt P06241). Description: co-IP; endogenous proteins; lysates (IP lysis buffer with protease inhibitors) of NK-92 cells, uninfected, T. gondii infected, or infected and treated with anti-2B4 antibody; IP with 1 ug anti-2B4, anti-SHP-2 or anti-Fyn antibody at 4 C overnight, protein A/G-agarose beads, Western blot. A general note: Immunoblotting shows a protein as a band on a membrane.

Sequences of proteins named here, by UniProt entry; tags and fusion partners are left off.
UniProt P06241: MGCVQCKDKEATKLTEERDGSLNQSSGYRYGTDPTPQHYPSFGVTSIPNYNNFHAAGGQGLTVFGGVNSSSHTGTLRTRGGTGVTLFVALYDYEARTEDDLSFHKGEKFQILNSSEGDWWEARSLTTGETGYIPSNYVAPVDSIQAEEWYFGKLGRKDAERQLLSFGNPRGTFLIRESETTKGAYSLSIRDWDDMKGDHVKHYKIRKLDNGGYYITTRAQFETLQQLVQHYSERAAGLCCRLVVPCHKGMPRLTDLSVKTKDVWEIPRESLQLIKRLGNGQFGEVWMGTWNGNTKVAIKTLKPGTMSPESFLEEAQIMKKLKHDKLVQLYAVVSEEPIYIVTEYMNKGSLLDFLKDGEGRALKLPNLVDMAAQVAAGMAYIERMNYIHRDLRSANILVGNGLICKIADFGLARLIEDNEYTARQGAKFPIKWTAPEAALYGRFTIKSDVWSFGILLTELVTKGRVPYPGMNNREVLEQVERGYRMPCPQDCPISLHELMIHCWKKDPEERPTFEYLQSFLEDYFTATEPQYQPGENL

No constants are given. Whether binding was seen depends on the method and setting. Binding seen in cells or lysates may run through a third protein. Some binding calls cover weakened binding; strength is not graded here.

B1: 2B4 (CD244) (receptor, UniProt Q9BZW8 22-370)
chain: CQGSADHVVSISGVPLQLQPNSIQTKVDSIAWKKLLPSQNGFHHILKWENGSLPSNTSNDRFSFIVKNLSLLIKAAQQQDSGLYCLEVTSISGKVQTATFQVFVFESLLPDKVEKPRLQGQGKILDRGRCQVALSCLVSRDGNVSYAWYRGSKLIQTAGNLTYLDEEVDINGTHTYTCNVSNPVSWESHTLNLTQDCQNAHQEFRFWPFLVIIVILSALFLGTLACFCVWRRKRKEKQSETSPKEFLTIYEDVKDLKTRRNHEQEQTFPGGGSTIYSMIQSQSSAPTSQEPAYTLYSLIQPSRKSGSRKRNHSPSFNSTIYEVIGKSQPKAQNPARLSRKELENFDVYS
B1: the binding result is “binds”.

The values above are taken from paper PMC9509566.
